Laboratory results as given in PubChem BioAssay AID1487 (National Center for Advancing Translational Sciences (NCATS), 2009).
Some of the results follow. Shown are side measurements of this screen, not its main read-out; they come without a call. Most of these compounds were active or inconclusive in the main read-out, so they are no random draw. Potencies come from curve fits of mixed quality, noted in brackets.

Test: qHTS Assay for Modulators of Lamin A Splicing
Conditions: HeLa LMNA splicing GFP/RFP minigene ratio, 48 h
Outline: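 Read-out is the ratio of GFP to DsRed2 object intensity, acquired by 488 nm laser-scanning cytometry on HeLa lamin A-EGFP minigene reporter cells. Compound incubation 48 hrs at 37 °C in Opti-MEM with 2% FBS; DMSO 0.5% final.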

[1] = measured here: GFP splicing reporter channel
[2] = measured here: RFP viability control channel

Structure (SMILES)	AC50 [1]	AC50 [2]
CCN(CC)C(=O)Oc1ccc2c(=O)c(-c3ccc(OC)cc3)c(C)oc2c1	20 µM [rising, partial curve, poor fit]	20 µM [rising, partial curve]
CC(C)(C)NC(=O)C(c1ccncc1)N(Cc1ccco1)C(=O)c1ccc(-c2ccccc2)[nH]1 (centres undefined)	–	22.4 µM [falling, single point]
Cc1cc(NC(=O)c2ccccc2-c2ccccc2)ccc1Br	25.1 µM [rising, single point]	35.5 µM [rising, single point]
Cc1ccn2c(CNCCn3nc(C)cc3C)c(C(=O)N3CCCCCC3)nc2c1	0.01 µM [rising, full curve, poor fit]	–
Cc1ccc2nc(N(Cc3cccnc3)C(=O)C3COc4ccccc4O3)sc2c1 (centres undefined)	0.178 µM [rising, full curve, poor fit]	–
CCc1c(C)sc2c1CCN(Cc1ccc(F)cc1)C2c1ccccc1 (centres undefined)	2.82 µM [rising, partial curve, poor fit]	14.1 µM [rising, partial curve]
O=c1cc(Cn2ccnc2)c2cc3c(cc2o1)CCC3	11.2 µM [rising, partial curve]	–
CCCN(CCc1ccccc1)C1CCc2c(O)cccc2C1 (centres undefined)	0.00158 µM [rising, full curve, poor fit]	0.00355 µM [rising, full curve, poor fit]
Cc1ccc(S(=O)(=O)NNC(=O)Nc2ccc(Cl)c(Cl)c2)cc1	11.2 µM [falling, single point]	–
CCc1nnc(NC(=O)CSCc2cc(=O)c3ccc(C)cc3[nH]2)s1	0.501 µM [rising, full curve, poor fit]	1.41 µM [rising, partial curve, poor fit]
CCCSc1nc(C)c(-c2csc(C(C#N)=C3CCCC3)n2)cc1C#N	17.8 µM [rising, single point]	–
O=C(N/C(=C\c1ccc([N+](=O)[O-])cc1)C(=O)N1CCOCC1)c1ccccc1	–	1.41 µM [falling, partial curve, poor fit]
COc1cccc(C(=O)Nc2nnc(-c3cccs3)o2)c1	–	2.82 µM [rising, partial curve, poor fit]
Cc1cc(O)c(C(c2ccccc2Cl)N2CCN(c3ccccc3)CC2)c(=O)n1Cc1ccco1 (centres undefined)	–	0.282 µM [rising, full curve, poor fit]
CCC(C)NC(=O)CC(NS(=O)(=O)c1ccc(C)cc1)c1ccc(OC)cc1 (centres undefined)	–	0.891 µM [falling, full curve, poor fit]
Nc1nc(SCc2ccc(Cl)cc2Cl)nc2nc3c(cc12)CCCC3	11.2 µM [rising, partial curve]	–
Cc1cc(C(=O)N/N=C2/CC(C)CC(C)(C)C2)c(C)o1 (centres undefined)	1.26 µM [falling, partial curve]	0.00501 µM [falling, full curve, poor fit]

Rewritten as a markdown table: two of the compounds above.

| Structure (SMILES) | AC50 [1] | AC50 [2] |
| --- | --- | --- |
| CCc1c(C)sc2c1CCN(Cc1ccc(F)cc1)C2c1ccccc1 (centres undefined) | 2.82 µM [rising, partial curve, poor fit] | 14.1 µM [rising, partial curve] |
| O=c1cc(Cn2ccnc2)c2cc3c(cc2o1)CCC3 | 11.2 µM [rising, partial curve] | – |

(more compounds)

Structure (SMILES)	AC50 [1]	AC50 [2]
CC(C)(C)n1nc(-c2ccc(F)cc2)c2c(N)ncnc21	15.8 µM [rising, single point]	15.8 µM [rising, single point]
CC(=O)N/C(=C/c1ccc2c(c1)OCO2)C(=O)NCc1ccccc1	1.41 µM [falling, full curve, poor fit]	1.41 µM [falling, full curve, poor fit]
COc1ccccc1N1CCN(C(=O)c2oc3cc(C)cc(C)c3c2C)CC1	–	11.2 µM [rising, partial curve]
CC1CC(C)CN(C(=O)CCNS(=O)(=O)c2ccc3c(c2)CCC(=O)N3)C1 (centres undefined)	15.8 µM [rising, single point]	22.4 µM [rising, single point]
C=C(C)CN(CC)c1nc(N)c2c(N)nc3c(c2c1C#N)CC(=O)N3C12CC3CC(CC(C3)C1)C2	–	11.2 µM [rising, partial curve]
CN(CC(=O)Nc1ccncc1)S(=O)(=O)c1ccc(Cl)cc1	12.6 µM [rising, single point]	–
Cc1ccc(CN2c3ccccc3S(=O)(=O)c3ccccc32)cc1	–	39.8 µM [rising, partial curve, poor fit]
CCOC(=O)C1=C(C)NC(=S)NC1c1ccc(-c2ccc(Cl)cc2)o1 (centres undefined)	25.1 µM [rising, partial curve]	35.5 µM [rising, single point]
Cc1cccc(Cn2c(SCCO)nc3c2c(=O)n(C)c(=O)n3C)c1	–	35.5 µM [rising, single point]
Cc1ccc(Nc2nc(C(=O)NCc3ccco3)cs2)cc1	–	22.4 µM [rising, partial curve]
COc1ccccc1-c1nnc2sc(COc3ccc(F)cc3)nn12	5.62 µM [rising, partial curve]	14.1 µM [rising, partial curve, poor fit]
Cn1nc(CC(=O)Nc2ccc3c(c2)OCCO3)c2ccccc2c1=O	0.447 µM [rising, full curve, poor fit]	1.26 µM [rising, full curve]
COc1cc(/C=C/C(=O)Nc2nnc(CC(C)C)s2)cc(OC)c1OC	–	12.6 µM [rising, partial curve, poor fit]
CCc1cc(=O)oc2cc(OC(C)=O)cc(OC(C)=O)c12	14.1 µM [rising, single point]	22.4 µM [rising, single point]
CCCn1c(Nc2nc3ccccc3n2C)nc2ccccc21	35.5 µM [falling, single point]	35.5 µM [falling, single point]
CCOC(=O)c1ccc(CSc2nnc3cc(C)c4ccccc4n23)cc1	7.08 µM [rising, partial curve, poor fit]	8.91 µM [rising, partial curve, poor fit]
Cc1sc2ncnc(N[C@@H](Cc3c[nH]c4ccccc34)C(=O)O)c2c1C	–	0.631 µM [falling, full curve, poor fit]
